These results are taken from PubChem BioAssay AID248 (DTP/NCI, 2004).

The list is a part of this screen's results and no random one: it is rich in T/C values a quarter to a half above the control, in often repeated tests (any T/C) and in doses without a T/C. Further doses and runs are listed elsewhere. T/C is the treated group as % of the vehicle group. Some doses have a count of surviving animals in place of a T/C: the source files T/C as zero there, which appears to mark a toxic dose or a test without result, not a measured value. Some survivor counts are full or nearly so, which does not show that the dose was tolerated: the source hardly ever lists a survival T/C far under the control, and the zero likely stands for such cases as well. Survivors were counted at the toxicity check, usually on the fifth day, unless a day is given; later deaths do not show. Schedule codes are those of the source, read here as Q, the interval in days (D) or hours (H), X, the number of doses. Some schedule codes hold Z or #, which are not explained here. Where survival is the endpoint, the PubChem record calls one and a half times the control and up active, and a quarter to a half above the control has no call in these data; cut-offs in other NCI protocols can differ. Some T/C values are followed by the survivors on the day toxicity was checked, most often the fifth; where none is given, no animal had died by that day.

In the experiment the test system is L1210 leukemia ip in BDF1 mice, survival T/C. In words: NCI In Vivo Anticancer Drug Screen. Data for tumor model L1210 Leukemia (intraperitoneal) in B6D2F1 (BDF1) mice. The note with it: T/C endpoint: mean survival time, higher T/C = longer survival.
[1] abbreviates: dose: 100.0 mg/kg/injection, schedule: Q04DX003 (ip), vehicle: Klucel (hydroxypropylcellulose) (HPC).
Setting [2] is: dose: 200.0 mg/kg/injection, schedule: Q04DX003 (ip), vehicle: Klucel (hydroxypropylcellulose) (HPC).
[3] abbreviates: dose: 400.0 mg/kg/injection, schedule: Q04DX003 (ip), vehicle: Klucel (hydroxypropylcellulose) (HPC).

With `CO[C@@H](C=O)O[C@@H](C=O)CO`, the survivor count is, setting by setting: (dose: 12.5 mg/kg/injection, schedule: Q03HX008 (ip), vehicle: water) 8 of 8; (dose: 12.5 mg/kg/injection, schedule: Q03HX016 (ip), vehicle: water) 8 of 8; (dose: 12.5 mg/kg/injection, schedule: Q03HX024 (ip), vehicle: water) 8 of 8; (dose: 50.0 mg/kg/injection, schedule: Q01DX009 (ip), vehicle: water) 8 of 8; (dose: 50.0 mg/kg/injection, schedule: Q01DX009 (sc), vehicle: water) 8 of 8; (dose: 50.0 mg/kg/injection, schedule: Q03HX008 (ip), vehicle: water) 6 of 8. Besides, the survivor count was 3 of 8 (dose: 50.0 mg/kg/injection, schedule: Q03HX016 (ip), vehicle: water); 0 of 8 (dose: 50.0 mg/kg/injection, schedule: Q03HX024 (ip), vehicle: water); 8 of 8 (dose: 50.0 mg/kg/injection, schedule: Q04DX003 (iv), vehicle: water); 6 of 8 (dose: 100.0 mg/kg/injection, schedule: Q01DX009 (ip), vehicle: water); 8 of 8 (dose: 100.0 mg/kg/injection, schedule: Q01DX009 (oral), vehicle: water); 8 of 8 (dose: 100.0 mg/kg/injection, schedule: Q01DX009 (sc), vehicle: water). In addition, the survivor count reads like this: (dose: 100.0 mg/kg/injection, schedule: Q03HX008 (ip), vehicle: water) 0 of 8; (dose: 100.0 mg/kg/injection, schedule: Q03HX016 (ip), vehicle: water) 0 of 8; (dose: 100.0 mg/kg/injection, schedule: Q03HX024 (ip), vehicle: water) 0 of 8; (dose: 100.0 mg/kg/injection, schedule: Q04DX003 (ip), vehicle: water) 6 of 8; (dose: 100.0 mg/kg/injection, schedule: Q04DX003 (iv), vehicle: water) 8 of 8; (dose: 100.0 mg/kg/injection, schedule: Q08DX002 (ip), vehicle: water) 8 of 8. In addition, the survivor count (dose: 200.0 mg/kg/injection, schedule: Q01DX001 (ip), vehicle: water) is on record as 2 of 8; the survivor count (dose: 200.0 mg/kg/injection, schedule: Q01DX009 (ip), vehicle: water) is recorded as 1 of 8; the survivor count (dose: 200.0 mg/kg/injection, schedule: Q01DX009 (oral), vehicle: water) is 8 of 8; the survivor count (dose: 200.0 mg/kg/injection, schedule: Q01DX009 (sc), vehicle: water) was 6 of 8; the survivor count (dose: 200.0 mg/kg/injection, schedule: Q03HX008 (ip), vehicle: water) was 0 of 8; the survivor count (dose: 200.0 mg/kg/injection, schedule: Q03HX016 (ip), vehicle: water) is recorded as 0 of 8. In addition, the survivor count reads like this: (dose: 200.0 mg/kg/injection, schedule: Q03HX024 (ip), vehicle: water) 0 of 8; (dose: 200.0 mg/kg/injection, schedule: Q04DX003 (ip), vehicle: water) 6 of 8; (dose: 200.0 mg/kg/injection, schedule: Q04DX003 (iv), vehicle: water) 7 of 8; (dose: 200.0 mg/kg/injection, schedule: Q08DX002 (ip), vehicle: water) 7 of 8; (dose: 400.0 mg/kg/injection, schedule: Q01DX001 (ip), vehicle: water) 0 of 8; (dose: 400.0 mg/kg/injection, schedule: Q01DX009 (ip), vehicle: water) 0 of 8. Besides, the survivor count reads like this: (dose: 400.0 mg/kg/injection, schedule: Q01DX009 (oral), vehicle: water) 8 of 8; (dose: 400.0 mg/kg/injection, schedule: Q01DX009 (sc), vehicle: water) 2 of 8; (dose: 400.0 mg/kg/injection, schedule: Q04DX003 (ip), vehicle: water) 1 of 8; (dose: 400.0 mg/kg/injection, schedule: Q04DX003 (iv), vehicle: water) 7 of 8; (dose: 400.0 mg/kg/injection, schedule: Q08DX002 (ip), vehicle: water) 1 of 8; (dose: 560.0 mg/kg/injection, schedule: Q01DX009 (ip), vehicle: water) 1 of 8. The survivor count runs as follows: (dose: 560.0 mg/kg/injection, schedule: Q01DX Z (ip), vehicle: water) 0 of 8; (dose: 800.0 mg/kg/injection, schedule: Q01DX001 (ip), vehicle: water) 0 of 8; (dose: 800.0 mg/kg/injection, schedule: Q01DX009 (oral), vehicle: water) 2 of 8; (dose: 800.0 mg/kg/injection, schedule: Q04DX003 (ip), vehicle: water) 0 of 8; (dose: 800.0 mg/kg/injection, schedule: Q08DX002 (ip), vehicle: water) 0 of 8. In addition, the T/C was 134 % of control (dose: 140.0 mg/kg/injection, schedule: Q01DX009 (ip), vehicle: water) and 134 % of control (dose: 140.0 mg/kg/injection, schedule: Q01DX Z (ip), vehicle: water).
In the case of `CCC(C)(O)C(=O)O` (centres undefined), where the note is “dose: 400.0 mg/kg/injection, schedule: Q04DX002 (ip), vehicle: saline”, the survivor count is 1 of 3.
Turning to `CC(=O)OC(C[N+](=O)[O-])C(Cl)(Cl)Cl` (centres undefined), the survivor count by setting is: (dose: 50.0 mg/kg/injection, schedule: Q04DX003 (ip), vehicle: Klucel (hydroxypropylcellulose) (HPC)) 1 of 6; under setting [1], 1 of 6; under setting [2], 0 of 6; under setting [3], 1 of 6.
As for `O=C1COc2ccccc2N1`, the survivor count (dose: 400.0 mg/kg/injection, schedule: Q01DX001 (ip), vehicle: other) is listed as 0 of 6.
With `Fc1ccccc1CSc1ncnc2nc[nH]c12`, for the setting “dose: 75.0 mg/kg/injection, schedule: Q01DX009 (ip), vehicle: saline”, the T/C was 141 % of control. Besides, the survivor count is on record as 1 of 6 (dose: 300.0 mg/kg/injection, schedule: Q01DX009 (ip), vehicle: saline); 1 of 6 (dose: 400.0 mg/kg/injection, schedule: Q01DX001 (ip), vehicle: saline); 0 of 6 (dose: 600.0 mg/kg/injection, schedule: Q01DX001 (ip), vehicle: saline).
Consider `CC(C)C1(Cc2ccccc2)C(=O)NC(=S)NC1=O`, for which the survivor count (dose: 300.0 mg/kg/injection, schedule: Q01DX001 (ip), vehicle: saline) is reported as 3 of 6.
As for `CN=C(c1ccc(NC(=O)c2ccc(C(=O)Nc3ccc(C(=NC)N4CCOCC4)cc3)c(Cl)c2)cc1)N1CCOCC1`, the survivor count (dose: 120.0 mg/kg/injection, schedule: Q01DX Z (ip), vehicle: carboxymethylcellulose (CMC)) is 0 of 6.
As for `c1ccc2c(c1)C1c3cccc[n+]3C2CC1n1c2ccccc2c2ccccc21` (centres undefined), the survivor count (dose: 50.0 mg/kg/injection, schedule: Q01DX009 (ip), vehicle: Klucel (hydroxypropylcellulose) (HPC)) is 2 of 6; the survivor count under setting [1] is 0 of 6; the survivor count under setting [2] was 0 of 6; the survivor count under setting [3] is given as 0 of 6.
For the compound `CCCC(=O)NC1=C(N2CC2)C(=O)C(NC(=O)CCC)=C(N2CC2)C1=O`, the T/C was 127 % of control [5 of 6 alive] (dose: 1.0 mg/kg/injection, schedule: Q01DX Z (ip), vehicle: saline); 136 % of control (dose: 2.0 mg/kg/injection, schedule: Q01DX010 (oral), vehicle: saline); 133 % of control (dose: 8.0 mg/kg/injection, schedule: Q01DX010 (oral), vehicle: saline). Besides, the survivor count by setting is: (dose: 8.0 mg/kg/injection, schedule: Q01DX Z (ip), vehicle: saline) 6 of 6; (dose: 16.0 mg/kg/injection, schedule: Q01DX010 (oral), vehicle: saline) 6 of 6.
